Reference: the supplement of paper PMC3334620
In all, about 33,000 sequences were measured (“E-score (-0.5 to 0.5)”: median about -0.016, highest 2% from about 0.3 on). The list shows a part of the results.

The sequences below were run against T1, Yer184c (UniProt P39961) (assay: PBM E-score (8-mer binding enrichment) (E-score (-0.5 to 0.5)); higher = stronger / more preferred TF binding). Conditions: protein concentration: 100 nM; construct: GST-full length.
T1 sequence: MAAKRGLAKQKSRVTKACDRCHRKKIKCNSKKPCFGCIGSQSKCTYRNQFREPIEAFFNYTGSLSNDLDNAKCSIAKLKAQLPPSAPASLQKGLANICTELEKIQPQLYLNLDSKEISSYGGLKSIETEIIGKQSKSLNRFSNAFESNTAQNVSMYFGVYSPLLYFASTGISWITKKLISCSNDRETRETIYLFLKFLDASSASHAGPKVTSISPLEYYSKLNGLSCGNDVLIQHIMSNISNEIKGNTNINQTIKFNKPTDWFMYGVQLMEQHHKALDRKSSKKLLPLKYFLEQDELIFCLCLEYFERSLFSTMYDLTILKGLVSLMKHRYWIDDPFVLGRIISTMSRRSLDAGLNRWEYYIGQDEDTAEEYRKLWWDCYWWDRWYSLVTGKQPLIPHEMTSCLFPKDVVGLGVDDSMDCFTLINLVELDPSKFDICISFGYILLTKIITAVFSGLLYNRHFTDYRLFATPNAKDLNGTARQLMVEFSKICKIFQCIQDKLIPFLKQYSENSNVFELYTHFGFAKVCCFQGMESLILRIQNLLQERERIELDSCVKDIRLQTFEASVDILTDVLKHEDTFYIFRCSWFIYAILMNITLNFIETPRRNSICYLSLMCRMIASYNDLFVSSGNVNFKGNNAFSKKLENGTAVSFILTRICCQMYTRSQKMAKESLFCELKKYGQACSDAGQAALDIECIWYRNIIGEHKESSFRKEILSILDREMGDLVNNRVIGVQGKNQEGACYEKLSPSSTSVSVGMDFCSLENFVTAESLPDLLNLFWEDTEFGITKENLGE
Procedure, shortened: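 For each ungapped eight-base word taken together with its reverse complement, the Universal PBM Analysis Suite assigned an E-score. Binding data came from GST-tagged yeast transcription factors, applied at about 100-200 nM, on universal all-10-mer Agilent arrays made double-stranded by primer extension. Fluorescent anti-GST marked bound protein, and scans were normalised with masliner.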

Sequence	PBM E-score
CGAGGTCC	0.123
ATTCCATG	0.035
GACCATCC	-0.237
CATCTCCG	0.37
CCCACTCC	-0.218
AAGCCACA	-0.0901
ATTCTTCC	0.083
GCACACCA	-0.0483
CCGCCATA	0.191
ATGTCTGC	-0.0345
AACGACCC	0.0359
GCACTATA	-0.0644
TCGCGTCA	-0.0846
CCCGGAGC	0.232
GTCCATTA	0.0785
ATGTTTCA	0.0651
GAAGGGAC	-0.0856
AAGACCAT	-0.0743
CCGGGACC	0.342
CTCACAAG	-0.177
CGTATATA	0.03
GAGATCAA	0.116
AAGCTGAT	0.0938
CCTATAGA	-0.0673
CCCCGAAG	0.0368

Sequence	PBM E-score
CACAGCAC	-0.192
ACAAGTAC	0.00537
GGCTACAC	0.00875
AATTTTCG	0.092
AGGACAAG	-0.102
GGATCAAA	0.135
GGATCGCC	0.0301
AAAGACGA	-0.03
GACAGGTA	-0.0915
AGGGAGAG	-0.176
CACGTCGA	-0.301
AGCACTAA	0.0623
AGGTAGGC	-0.282
CATTGAGG	-0.17
CCTTGGTA	0.0994
AGTTCTCC	-0.00082
CTAAATCC	0.157
GCTTGTAA	0.0592
ATCCATGG	-0.161
CGGGATTC	0.272
CTTTGGTC	0.121
AACGCTAA	-0.162
AAATTCGA	0.00404
GGCATTGA	0.0573
TCCACACA	-0.00582

Sequence	PBM E-score
AGATCGAC	-0.04
CAGTGTCG	-0.178
CTAAAAAG	0.109
GCCAAGGC	-0.337
AATATTTA	0.216
ATGCACTG	-0.0313
ACACGGTC	0.00162
AGTTACAG	-0.0219
CACGATAG	0.0147
CCAAATGA	0.0957
GCAGTCAA	-0.202
AGCTGGGC	-0.0964
AGCGGAAT	0.0752
CGAACGCC	-0.0187
GATCATTA	0.104
GTCGTAAA	-0.0446
CCAACACC	-0.167
AAAGTGTG	-0.0177
AAAACTCC	-0.108
ATTGGGAG	-0.0909
ACCAAAGA	0.189
TAGCAATA	0.152
CACTACTC	0.0536
AGAACAAT	0.174
CGTATAGC	-0.00851

Sequence	PBM E-score
ACGTGTAC	-0.135
AGTATAAT	0.22
CTCGCCGA	0.193
ATCGGATC	0.298
AGGCGTTA	-0.172
CAATCCAA	-0.12
CAAAGATA	0.156
TACTACCA	-0.144
CGTCCAGA	-0.136
GCATATCC	0.00395
CCGGACAC	0.286
ATCTTGCA	0.182
GAAGCACC	-0.0419
CCGTGCAG	0.154
GACTACTC	-0.0939
AGATACTG	-0.0186
ACTCTCAC	-0.00377
CATAATAA	0.0808
AATTGCGT	0.126
CCTGAATA	0.0707
CACACAGC	-0.0282
AATATTGC	0.274
AATGACGA	0.0833
AGCGCTCA	0.0722
CCTTGTCA	-0.237

Sequence	PBM E-score
AAATGTGA	-0.068
CGAATTCG	0.18
GAACGCGA	-0.049
AGAGCAGA	-0.0129
ATATGTAC	0.139
CGCGCACC	0.00887
ACCGTATA	-0.129
AGACGGAT	0.195
AAGCCGCT	0.0949
ATAGAAAA	-0.0185
CAGAGGCA	-0.124
TTAAGAAA	0.069
AAAAATAA	0.237
CCCGGTCC	0.0252
CACGTGGG	-0.235
AGAAAATA	0.231
GCTCAAGC	-0.0698
GGACGCTA	-0.185
AAGCTTGC	-0.0849
ACCGCGAC	-0.0671
CCGTAGAA	0.113
GGCCCATA	-0.169
AGGTAGAG	-0.139
CGGCAGTA	0.14
ACAGCGAC	-0.227

Sequence	PBM E-score
ATTCCCGG	0.384
ACTTGGGC	-0.247
CCTAAGAG	-0.152
AGAGAACC	-0.0986
TGGCCCCA	-0.35
ACCTGCCT	-0.12
CTAGATAG	-0.0568
ATACGGAA	0.412
AGTCACGC	-0.222
CCGATCGA	0.118
TCCCAGGA	-0.317
GATAGAAA	0.0417
GAATTCCA	0.193
AAATCTTC	0.0721
AGGCAGAG	-0.124
AACTATTC	-0.0137
GGTGGTCA	-0.152
ACTCCACC	-0.145
ATCTTTTC	0.0824
TGTGGAAA	0.1
AGAGAACA	0.0881
ACATAGCC	0.0675
ATTCCCGC	0.3
CCCGCTGA	-0.196
CCCTATTC	-0.152

Sequence	PBM E-score
AGGAGCCG	0.0636
CACATTCC	-0.157
CCCATAGG	-0.0316
GTATCAAA	0.112
CCTTGGCA	-0.254
GTTATCGA	0.0441
ACTTAAAA	0.205
ATGCGCGC	0.0459
ACGGTTGC	-0.129
AAGGGGCC	-0.282
CGGCTATC	0.285
CTGGCCAA	-0.0884
CACCTCGC	-0.0773
AGTTATTG	0.0382
CAAGCGTA	-0.216
AAGCCCTA	-0.0474
CCCTGCAA	-0.13
CTTAACAC	-0.11
ACGGGAGT	0.126
ACCCGCTA	-0.0558
AGAAGTAA	0.161
ATTCTGTA	0.161
CGACACCC	-0.155
CATGTCCC	-0.151
CGCATCTA	0.112

Sequence	PBM E-score
AAATTATG	0.108
AAGTGGTC	0.0156
CTGCCATC	-0.0255
GAGGTACC	-0.109
AGTTTGGG	0.0469
AGCGGATC	0.204
AATCAGTG	-0.0342
AGCAAAAC	0.0225
AATGATGC	0.0595
CCGTTAAG	-0.0245
GATCAGCC	-0.105
TGCAATAA	0.0778
CGGATTGA	0.218
AACGTGAC	-0.151
ATTGACGG	0.0836
CGGTAGAA	-0.00037
ATGCTTTA	-0.15
TCCTGCGA	0.00447
GGCGCGCA	0.0179
CGGAGGTA	0.077
AGAGGTCG	-0.072
AGCTTTTC	0.0452
AGGTTACG	-0.148
CTTGTAAC	0.215
CTCGAGTA	0.0674

Part of the list above, with each value named:
CCGGACAC
  PBM E-score: 0.286
ATCTTGCA
  PBM E-score: 0.182
GAAGCACC
  PBM E-score: -0.0419
CCGTGCAG
  PBM E-score: 0.154

Reprinted at random: 5 records from the list
Sequence	PBM E-score
CCAACACC	-0.167
AGTCACGC	-0.222
CAGTGTCG	-0.178
ACTCTCAC	-0.00377
GGCATTGA	0.0573

(continued)

Sequence	PBM E-score
CTATAAGA	-0.0299
GCCCTTAC	-0.121
ACCACCAG	-0.125
CAGGGGCC	-0.198
ACTCGAGA	0.0599
GCGGGCAC	0.0779
CTCCTCAG	-0.212
TCCGTCGA	0.176
GTCATCGA	-0.0808
TCGAAACA	0.266
CTTCCAGC	-0.198
CAGTTTAA	-0.0275
ACCTGGGA	-0.14
CCGCAGTA	-0.0771
ACATTAGT	-0.0735
GTAAGCAA	-0.014
TACGAGGA	-0.109
AATACTTA	0.0866
AATGCAAC	-0.0471
